Assay results from article PMC9377591.
These are yes or no findings as the source states them, for the method shown. Binding seen in cells or lysates may run through a third protein. Some binding calls cover weakened binding; strength is not graded here. Where a sequence is shown, tags or fusion partners need not be part of it.

Chains of the proteins cited; added tags and fusions are not shown. Lines headed by an entry give the natural chain unless they say otherwise; changes in a name come on top.
UniProt Q9VY77: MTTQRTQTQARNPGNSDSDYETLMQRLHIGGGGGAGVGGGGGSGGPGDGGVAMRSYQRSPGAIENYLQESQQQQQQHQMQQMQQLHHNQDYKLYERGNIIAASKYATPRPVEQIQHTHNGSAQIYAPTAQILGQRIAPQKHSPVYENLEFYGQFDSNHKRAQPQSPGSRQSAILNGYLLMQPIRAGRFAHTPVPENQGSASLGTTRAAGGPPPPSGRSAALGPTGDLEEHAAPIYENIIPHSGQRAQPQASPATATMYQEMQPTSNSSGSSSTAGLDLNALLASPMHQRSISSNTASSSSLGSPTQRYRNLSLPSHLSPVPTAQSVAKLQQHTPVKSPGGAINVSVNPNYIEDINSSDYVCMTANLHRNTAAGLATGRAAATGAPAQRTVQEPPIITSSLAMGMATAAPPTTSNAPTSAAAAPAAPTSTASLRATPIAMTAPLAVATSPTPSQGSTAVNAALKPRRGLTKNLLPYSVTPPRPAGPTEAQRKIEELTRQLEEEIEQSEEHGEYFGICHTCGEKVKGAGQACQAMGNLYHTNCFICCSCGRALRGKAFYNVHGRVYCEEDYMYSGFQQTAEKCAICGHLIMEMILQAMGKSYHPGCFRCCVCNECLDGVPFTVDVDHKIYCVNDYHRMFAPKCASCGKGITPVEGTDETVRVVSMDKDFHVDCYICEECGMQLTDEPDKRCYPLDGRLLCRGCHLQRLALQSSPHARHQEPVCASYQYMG

Target: T1, V5-tagged Warts (Wts-V5-His) (Drosophila) (UniProt Q9VA38)
T1 sequence: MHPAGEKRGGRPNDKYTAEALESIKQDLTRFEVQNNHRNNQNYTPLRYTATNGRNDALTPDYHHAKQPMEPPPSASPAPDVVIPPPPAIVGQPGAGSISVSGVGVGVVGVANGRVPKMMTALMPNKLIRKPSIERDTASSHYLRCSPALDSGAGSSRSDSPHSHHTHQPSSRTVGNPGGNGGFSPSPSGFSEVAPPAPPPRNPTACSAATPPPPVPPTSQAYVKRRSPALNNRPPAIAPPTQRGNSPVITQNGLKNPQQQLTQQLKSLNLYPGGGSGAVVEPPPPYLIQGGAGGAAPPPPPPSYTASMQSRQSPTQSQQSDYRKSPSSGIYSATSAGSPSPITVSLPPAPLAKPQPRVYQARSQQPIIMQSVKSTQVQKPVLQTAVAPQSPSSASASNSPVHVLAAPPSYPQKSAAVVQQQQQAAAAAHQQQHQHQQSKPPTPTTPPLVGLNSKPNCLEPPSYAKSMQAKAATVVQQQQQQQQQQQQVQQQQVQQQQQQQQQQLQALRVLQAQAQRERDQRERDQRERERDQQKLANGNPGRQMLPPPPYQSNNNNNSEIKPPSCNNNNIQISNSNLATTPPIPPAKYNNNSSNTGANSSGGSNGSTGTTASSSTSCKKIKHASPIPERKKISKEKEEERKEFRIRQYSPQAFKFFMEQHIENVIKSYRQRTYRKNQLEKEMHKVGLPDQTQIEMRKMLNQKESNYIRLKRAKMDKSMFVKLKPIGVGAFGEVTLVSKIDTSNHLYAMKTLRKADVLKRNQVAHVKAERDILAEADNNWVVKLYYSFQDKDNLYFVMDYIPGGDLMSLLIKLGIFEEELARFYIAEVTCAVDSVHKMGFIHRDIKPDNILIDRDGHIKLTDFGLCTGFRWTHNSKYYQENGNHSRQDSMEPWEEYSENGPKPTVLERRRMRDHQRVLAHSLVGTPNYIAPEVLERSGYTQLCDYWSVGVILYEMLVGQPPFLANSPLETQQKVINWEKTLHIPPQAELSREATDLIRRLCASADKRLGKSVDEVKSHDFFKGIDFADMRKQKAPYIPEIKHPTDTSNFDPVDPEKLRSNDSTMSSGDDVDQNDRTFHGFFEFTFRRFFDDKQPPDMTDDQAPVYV
Assay: co-IP; FLAG-tagged Jub constructs co-expressed with a V5-tagged partner in Drosophila S2 cells; lysis and washes in RIPA buffer (140 mM NaCl, 10 mM Tris-HCl pH 8.0, 1 mM EDTA, 1.0% Triton X-100, 0.1% SDS, 0.1% sodium deoxycholate); precipitated with anti-V5 agarose beads, blotted with anti-FLAG; band intensity normalised to full length Jub

Substance | binding
Jub LIM only (506-718), FLAG-tagged (from UniProt Q9VY77 506-718) (domain or fragment) | binds
Jub-FL (full length Ajuba LIM protein Jub), FLAG-tagged (from UniProt Q9VY77 1-728) | binds
